Measured values taken from publication PMC4735924.
Results are given in words; binding and its absence hold for the method and conditions named. In cells and extracts the contact can be indirect. Some results given as binding are weak or reduced against the parent protein; the word gives no strength.

Amino acid sequences for entries named in this document (tags omitted). A change or cut given only in a name is not applied to a line headed by its entry. Chains listed by the source or under a name are the forms on record and can include a tag or linker.
UniProt Q07813: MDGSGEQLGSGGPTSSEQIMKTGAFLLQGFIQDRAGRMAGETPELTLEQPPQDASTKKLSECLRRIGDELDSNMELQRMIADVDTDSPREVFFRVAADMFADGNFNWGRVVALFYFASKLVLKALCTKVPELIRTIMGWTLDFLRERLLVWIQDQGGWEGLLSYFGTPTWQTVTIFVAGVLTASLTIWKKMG
HA-Bcl-xL mutant 1 (mt1), overexpressed in wt MEFs (Q07817-1, form named): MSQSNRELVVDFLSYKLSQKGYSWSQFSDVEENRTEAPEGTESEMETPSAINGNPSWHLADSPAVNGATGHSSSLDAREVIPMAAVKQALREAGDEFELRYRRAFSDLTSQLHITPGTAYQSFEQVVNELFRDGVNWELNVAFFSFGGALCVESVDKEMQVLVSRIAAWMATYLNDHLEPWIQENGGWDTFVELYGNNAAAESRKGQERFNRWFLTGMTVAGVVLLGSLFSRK
HA-Bcl-xL mutant 2 (mt2), overexpressed in wt MEFs (Q07817-1, form named): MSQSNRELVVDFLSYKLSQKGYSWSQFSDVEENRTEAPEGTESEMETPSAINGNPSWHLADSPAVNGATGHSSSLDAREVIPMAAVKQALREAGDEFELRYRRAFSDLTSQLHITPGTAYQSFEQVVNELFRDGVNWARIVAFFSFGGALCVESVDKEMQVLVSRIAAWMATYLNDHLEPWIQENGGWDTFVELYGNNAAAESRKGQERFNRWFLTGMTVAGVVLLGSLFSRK

Molecular target: Bax, endogenous in wt MEFs (mouse (endogenous in MEFs)) (UniProt Q07813)
Assay: co-IP; lysates of wt MEFs overexpressing control vector or HA-Bcl-xL constructs (NP-40 buffer: 100 mM NaCl, 100 mM Tris pH 8.2, 0.5% NP-40); 500 ug total protein with anti-Bax antibody overnight at 4 °C, protein A/G Sepharose 2 h; blot for HA and Bax

| Substance | binding |
| --- | --- |
| HA-Bcl-xL (wild type), overexpressed in wt MEFs (from UniProt Q07817-1 1-233) | binds |
| HA-Bcl-xL mutant 1 (mt1), overexpressed in wt MEFs (from UniProt Q07817-1 1-233) | no binding |
| HA-Bcl-xL mutant 2 (mt2), overexpressed in wt MEFs (from UniProt Q07817-1 1-233) | no binding |
